The text below walks through data of the supplement of paper PMC6411743.

Amino acid sequences for entries named in this document (tags omitted). A change or cut given only in a name is not applied to a line headed by its entry.
UniProt P10114: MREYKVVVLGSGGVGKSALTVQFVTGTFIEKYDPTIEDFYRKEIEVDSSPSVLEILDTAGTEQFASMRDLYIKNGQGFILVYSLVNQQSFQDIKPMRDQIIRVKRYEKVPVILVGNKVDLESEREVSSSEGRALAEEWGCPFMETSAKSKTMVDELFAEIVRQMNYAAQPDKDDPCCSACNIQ
UniProt P16402, whole entry: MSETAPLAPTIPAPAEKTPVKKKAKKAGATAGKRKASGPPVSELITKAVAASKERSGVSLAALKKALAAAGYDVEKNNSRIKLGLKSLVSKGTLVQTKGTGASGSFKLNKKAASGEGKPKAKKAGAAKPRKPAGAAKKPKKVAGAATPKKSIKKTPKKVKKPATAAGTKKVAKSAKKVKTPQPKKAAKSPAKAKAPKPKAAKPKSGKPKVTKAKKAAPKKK
UniProt P05455: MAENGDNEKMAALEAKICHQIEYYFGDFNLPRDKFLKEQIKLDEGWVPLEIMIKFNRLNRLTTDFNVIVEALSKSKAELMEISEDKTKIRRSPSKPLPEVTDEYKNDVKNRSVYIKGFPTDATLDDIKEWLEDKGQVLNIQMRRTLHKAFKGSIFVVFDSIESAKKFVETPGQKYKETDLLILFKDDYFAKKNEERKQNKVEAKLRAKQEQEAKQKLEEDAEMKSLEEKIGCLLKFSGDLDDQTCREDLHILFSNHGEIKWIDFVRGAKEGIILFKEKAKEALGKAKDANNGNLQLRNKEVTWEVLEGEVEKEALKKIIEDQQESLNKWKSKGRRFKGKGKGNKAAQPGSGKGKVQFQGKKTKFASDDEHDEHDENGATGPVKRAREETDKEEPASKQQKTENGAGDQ
UniProt P11279: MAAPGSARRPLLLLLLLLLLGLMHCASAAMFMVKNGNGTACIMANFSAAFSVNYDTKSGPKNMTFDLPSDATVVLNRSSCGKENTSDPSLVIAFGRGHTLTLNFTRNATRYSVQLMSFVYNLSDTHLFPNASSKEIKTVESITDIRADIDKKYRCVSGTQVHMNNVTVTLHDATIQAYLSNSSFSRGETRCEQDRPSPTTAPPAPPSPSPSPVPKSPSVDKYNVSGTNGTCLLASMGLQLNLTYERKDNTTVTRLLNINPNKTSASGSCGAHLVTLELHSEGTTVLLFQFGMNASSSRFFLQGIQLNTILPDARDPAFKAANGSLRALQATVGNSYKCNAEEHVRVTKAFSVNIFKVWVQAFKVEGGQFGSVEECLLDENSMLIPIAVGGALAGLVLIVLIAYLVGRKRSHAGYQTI
UniProt P04080: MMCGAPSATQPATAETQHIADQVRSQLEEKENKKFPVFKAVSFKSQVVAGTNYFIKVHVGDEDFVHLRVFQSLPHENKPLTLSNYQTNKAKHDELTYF
UniProt P04066: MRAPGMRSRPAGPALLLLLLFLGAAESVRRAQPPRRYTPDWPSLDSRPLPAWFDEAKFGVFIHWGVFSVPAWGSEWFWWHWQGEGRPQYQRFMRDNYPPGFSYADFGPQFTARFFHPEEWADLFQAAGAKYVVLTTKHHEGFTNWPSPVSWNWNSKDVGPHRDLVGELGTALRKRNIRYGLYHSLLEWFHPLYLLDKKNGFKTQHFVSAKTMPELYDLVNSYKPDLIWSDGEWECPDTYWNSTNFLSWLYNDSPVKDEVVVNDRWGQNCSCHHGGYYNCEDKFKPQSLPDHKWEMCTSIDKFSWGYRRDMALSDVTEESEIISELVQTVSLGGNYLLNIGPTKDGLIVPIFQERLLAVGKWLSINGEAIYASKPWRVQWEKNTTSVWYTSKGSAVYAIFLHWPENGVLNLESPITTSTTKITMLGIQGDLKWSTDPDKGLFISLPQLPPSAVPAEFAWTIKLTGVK
UniProt P06280: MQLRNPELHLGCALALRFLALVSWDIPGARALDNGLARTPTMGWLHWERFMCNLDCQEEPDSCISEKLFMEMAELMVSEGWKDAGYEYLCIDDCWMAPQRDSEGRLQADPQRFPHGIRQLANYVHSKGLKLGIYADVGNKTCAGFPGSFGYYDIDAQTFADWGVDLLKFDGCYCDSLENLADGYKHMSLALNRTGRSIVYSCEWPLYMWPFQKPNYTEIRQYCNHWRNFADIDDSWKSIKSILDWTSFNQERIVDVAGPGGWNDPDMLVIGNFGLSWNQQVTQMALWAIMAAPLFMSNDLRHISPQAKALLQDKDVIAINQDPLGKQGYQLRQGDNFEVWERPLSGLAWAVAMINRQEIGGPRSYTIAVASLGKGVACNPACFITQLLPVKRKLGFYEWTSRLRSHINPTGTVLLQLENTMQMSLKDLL
UniProt P10768: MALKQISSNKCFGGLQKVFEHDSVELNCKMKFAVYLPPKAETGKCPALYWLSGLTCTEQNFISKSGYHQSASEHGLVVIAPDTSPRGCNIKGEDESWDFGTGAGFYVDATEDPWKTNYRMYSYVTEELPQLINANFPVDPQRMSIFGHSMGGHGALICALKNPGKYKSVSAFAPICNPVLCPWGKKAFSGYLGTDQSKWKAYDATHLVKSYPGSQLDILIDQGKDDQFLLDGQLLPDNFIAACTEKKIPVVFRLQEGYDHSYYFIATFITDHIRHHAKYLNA
UniProt P16083: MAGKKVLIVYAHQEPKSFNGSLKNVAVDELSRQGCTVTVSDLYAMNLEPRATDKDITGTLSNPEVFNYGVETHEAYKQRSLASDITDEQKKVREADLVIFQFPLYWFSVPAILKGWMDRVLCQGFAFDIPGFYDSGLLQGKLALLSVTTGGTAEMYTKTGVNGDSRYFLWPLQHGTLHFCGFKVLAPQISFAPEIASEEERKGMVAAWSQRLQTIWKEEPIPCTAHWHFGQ
UniProt O95822: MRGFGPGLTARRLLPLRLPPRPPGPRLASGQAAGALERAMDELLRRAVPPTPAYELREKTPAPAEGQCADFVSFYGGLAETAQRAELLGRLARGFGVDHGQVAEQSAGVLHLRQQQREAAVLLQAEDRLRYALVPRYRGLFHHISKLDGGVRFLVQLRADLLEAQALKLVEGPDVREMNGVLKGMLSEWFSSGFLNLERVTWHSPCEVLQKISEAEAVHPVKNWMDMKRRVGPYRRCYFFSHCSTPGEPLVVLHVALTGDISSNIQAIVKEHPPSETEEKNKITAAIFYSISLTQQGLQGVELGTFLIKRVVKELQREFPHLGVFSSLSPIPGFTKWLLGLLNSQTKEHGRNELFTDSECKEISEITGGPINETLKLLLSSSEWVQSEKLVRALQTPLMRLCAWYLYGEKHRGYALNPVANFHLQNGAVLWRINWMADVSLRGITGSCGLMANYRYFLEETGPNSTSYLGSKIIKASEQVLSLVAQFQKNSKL
UniProt P04040: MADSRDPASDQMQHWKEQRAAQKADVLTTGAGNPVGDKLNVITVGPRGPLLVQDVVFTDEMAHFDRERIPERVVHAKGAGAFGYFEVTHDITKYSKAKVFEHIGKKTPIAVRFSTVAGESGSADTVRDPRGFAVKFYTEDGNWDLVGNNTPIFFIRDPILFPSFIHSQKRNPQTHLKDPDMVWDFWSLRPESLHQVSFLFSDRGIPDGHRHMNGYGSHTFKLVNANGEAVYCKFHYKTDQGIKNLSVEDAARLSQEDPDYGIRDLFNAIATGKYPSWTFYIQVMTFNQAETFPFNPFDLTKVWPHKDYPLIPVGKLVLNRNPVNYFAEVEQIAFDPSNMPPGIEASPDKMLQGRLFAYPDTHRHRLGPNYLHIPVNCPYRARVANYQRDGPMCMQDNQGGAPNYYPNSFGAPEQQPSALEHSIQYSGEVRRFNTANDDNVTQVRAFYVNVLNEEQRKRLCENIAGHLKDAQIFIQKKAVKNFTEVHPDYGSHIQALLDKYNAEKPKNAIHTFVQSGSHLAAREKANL
UniProt P07108: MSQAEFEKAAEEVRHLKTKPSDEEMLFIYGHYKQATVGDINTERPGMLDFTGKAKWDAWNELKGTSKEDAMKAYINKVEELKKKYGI
UniProt P13051, whole entry: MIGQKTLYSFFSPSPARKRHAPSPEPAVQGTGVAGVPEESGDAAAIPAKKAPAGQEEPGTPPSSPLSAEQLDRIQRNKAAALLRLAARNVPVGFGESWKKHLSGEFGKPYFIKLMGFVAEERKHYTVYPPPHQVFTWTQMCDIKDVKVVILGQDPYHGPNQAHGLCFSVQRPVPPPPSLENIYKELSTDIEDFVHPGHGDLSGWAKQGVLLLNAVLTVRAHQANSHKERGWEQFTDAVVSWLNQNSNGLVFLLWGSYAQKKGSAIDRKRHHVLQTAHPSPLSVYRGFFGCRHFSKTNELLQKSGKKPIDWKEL
UniProt P15104, whole entry: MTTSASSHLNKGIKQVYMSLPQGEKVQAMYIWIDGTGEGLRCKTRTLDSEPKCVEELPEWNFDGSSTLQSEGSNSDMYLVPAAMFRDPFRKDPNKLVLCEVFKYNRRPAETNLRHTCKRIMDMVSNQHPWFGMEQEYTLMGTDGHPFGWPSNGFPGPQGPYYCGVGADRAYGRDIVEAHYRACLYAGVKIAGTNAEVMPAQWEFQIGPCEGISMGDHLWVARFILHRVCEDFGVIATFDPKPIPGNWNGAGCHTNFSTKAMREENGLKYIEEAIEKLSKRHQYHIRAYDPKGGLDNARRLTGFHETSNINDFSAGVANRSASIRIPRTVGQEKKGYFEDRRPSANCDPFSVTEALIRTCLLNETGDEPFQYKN
UniProt P14174: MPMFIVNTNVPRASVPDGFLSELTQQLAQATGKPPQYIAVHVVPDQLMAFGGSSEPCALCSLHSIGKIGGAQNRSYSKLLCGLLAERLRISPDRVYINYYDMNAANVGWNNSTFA
UniProt P07384: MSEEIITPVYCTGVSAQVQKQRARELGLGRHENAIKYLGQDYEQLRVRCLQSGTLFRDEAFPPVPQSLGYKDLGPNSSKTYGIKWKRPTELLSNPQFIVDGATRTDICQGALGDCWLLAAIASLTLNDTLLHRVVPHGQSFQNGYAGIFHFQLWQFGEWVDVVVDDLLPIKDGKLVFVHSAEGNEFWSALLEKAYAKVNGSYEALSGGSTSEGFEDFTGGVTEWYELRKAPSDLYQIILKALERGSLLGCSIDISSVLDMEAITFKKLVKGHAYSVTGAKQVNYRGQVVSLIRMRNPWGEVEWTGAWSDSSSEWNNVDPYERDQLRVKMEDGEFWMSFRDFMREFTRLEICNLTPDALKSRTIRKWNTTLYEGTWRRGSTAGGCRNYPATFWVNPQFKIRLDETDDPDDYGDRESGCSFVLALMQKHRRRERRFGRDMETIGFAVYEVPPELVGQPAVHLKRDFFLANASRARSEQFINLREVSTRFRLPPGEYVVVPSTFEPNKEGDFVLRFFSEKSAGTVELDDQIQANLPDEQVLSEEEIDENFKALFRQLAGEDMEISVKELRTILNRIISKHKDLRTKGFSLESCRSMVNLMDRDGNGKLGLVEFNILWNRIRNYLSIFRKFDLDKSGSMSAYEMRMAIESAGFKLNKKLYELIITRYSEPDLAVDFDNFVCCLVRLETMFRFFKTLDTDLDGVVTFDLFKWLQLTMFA
UniProt O95848: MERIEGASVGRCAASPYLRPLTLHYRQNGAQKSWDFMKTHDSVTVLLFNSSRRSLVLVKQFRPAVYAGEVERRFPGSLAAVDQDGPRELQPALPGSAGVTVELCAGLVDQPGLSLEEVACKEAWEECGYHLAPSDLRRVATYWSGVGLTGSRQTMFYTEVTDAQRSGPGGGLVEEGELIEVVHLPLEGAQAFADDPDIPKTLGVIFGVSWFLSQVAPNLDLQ
UniProt P04921: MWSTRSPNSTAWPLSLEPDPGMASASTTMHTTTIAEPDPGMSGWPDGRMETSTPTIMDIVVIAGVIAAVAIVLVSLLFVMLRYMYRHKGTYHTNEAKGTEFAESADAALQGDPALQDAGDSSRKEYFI
UniProt P09669, whole entry: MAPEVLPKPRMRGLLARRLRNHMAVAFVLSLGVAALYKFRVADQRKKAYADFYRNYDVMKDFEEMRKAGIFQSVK
UniProt P09693, whole entry: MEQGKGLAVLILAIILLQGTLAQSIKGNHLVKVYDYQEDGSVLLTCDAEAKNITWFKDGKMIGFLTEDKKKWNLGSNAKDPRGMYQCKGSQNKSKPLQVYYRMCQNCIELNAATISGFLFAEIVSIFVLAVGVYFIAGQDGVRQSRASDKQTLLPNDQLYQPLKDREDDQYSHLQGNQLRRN
UniProt P12956: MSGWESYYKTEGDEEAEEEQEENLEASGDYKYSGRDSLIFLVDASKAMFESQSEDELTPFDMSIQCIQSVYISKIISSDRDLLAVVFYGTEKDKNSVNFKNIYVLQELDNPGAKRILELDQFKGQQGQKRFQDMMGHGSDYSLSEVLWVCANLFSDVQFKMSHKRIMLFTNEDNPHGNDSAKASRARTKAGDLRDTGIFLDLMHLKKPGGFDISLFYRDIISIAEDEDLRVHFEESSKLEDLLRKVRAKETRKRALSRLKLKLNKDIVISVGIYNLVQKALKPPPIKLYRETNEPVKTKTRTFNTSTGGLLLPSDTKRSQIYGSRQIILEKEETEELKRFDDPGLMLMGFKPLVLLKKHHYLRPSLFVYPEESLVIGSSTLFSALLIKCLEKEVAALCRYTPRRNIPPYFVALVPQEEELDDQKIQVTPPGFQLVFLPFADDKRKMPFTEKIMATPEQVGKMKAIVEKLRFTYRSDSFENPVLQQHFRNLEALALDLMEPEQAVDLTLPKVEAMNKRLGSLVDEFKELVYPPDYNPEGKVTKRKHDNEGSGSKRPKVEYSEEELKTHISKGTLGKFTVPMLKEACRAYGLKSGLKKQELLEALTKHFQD

± gives the standard deviation of the averaged measurements. The entries are a selection whose mix differs from that of the whole data set. Most entries show no effect beyond the scatter of the controls.

Compound in this assay: Nc1ncnc2c1ncn2[C@@H]1O[C@H](COP(=O)(O)OP(=O)(O)OP(=O)(O)O)[C@@H](O)[C@H]1O [adenosine triphosphate]
The assay is described as follows: NP40-soluble protein abundance relative to vehicle (solubility fold change) (ratio); higher = more soluble protein in presence of ATP. An outline of the steps: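 Eight concentrations, 0.1 to 10 mM, were tested on Jurkat crude lysate for 10 min at room temperature and then 3 min at 37 °C, in three independent experiments. The lysate was solubilised with 0.8% NP40 and benzonase, ultracentrifuged, and the supernatant TMT-labelled for LC-MS/MS. Each value is the fold change against the detergent-processed vehicle in its own replicate, from vsn-normalised intensities.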

For EPHX1 (UniProt P07099), the NP40-soluble protein abundance turned out to be 1.08 ± 0.11 (concentration: 0.1mM) and 1.07 ± 0.1 (concentration: 0.5mM).
Take ANXA3 (UniProt P12429): the NP40-soluble protein abundance was determined as 1.02 ± 0.017 (concentration: 0.1mM) and 0.983 ± 0.016 (concentration: 0.5mM).
As to RAP2A (UniProt P10114), the NP40-soluble protein abundance (concentration: 0.1mM) came out at 1.15 ± 0.15 and the NP40-soluble protein abundance (concentration: 0.5mM) is 1.11 ± 0.13.
The like results for ETS1 (UniProt P14921) were, in that order, 0.996 ± 0.019 and 0.914 ± 0.024.
The like results for HIST1H1D (UniProt P16402) were, in that order, 0.919 ± 0.071 and 1.03 ± 0.13.
The like results for UniProt P05023 and related entries were, in that order, 1.02 ± 0.036 and 1.04 ± 0.064.
Turning to SSB (UniProt P05455), the NP40-soluble protein abundance by setting is: (concentration: 0.1mM) 0.9 ± 0.088; (concentration: 0.5mM) 0.99 ± 0.062.
UniProt P09132 and related entries: the NP40-soluble protein abundance runs as follows: (concentration: 0.1mM) 0.943 ± 0.023; (concentration: 0.5mM) 0.968 ± 0.018.
As for COX6A1 (UniProt P12074), the NP40-soluble protein abundance (concentration: 0.1mM) is 0.855 ± 0.15 and the NP40-soluble protein abundance (concentration: 0.5mM) is 0.88 ± 0.21.
For the target C6orf47 (UniProt O95873), the NP40-soluble protein abundance (concentration: 0.1mM) stood at 0.989 ± 0.17 and the NP40-soluble protein abundance (concentration: 0.5mM) is 0.919 ± 0.089.
The like results for LAMP1 (UniProt P11279) were, in that order, 0.93 ± 0.04 and 0.936 ± 0.08.
For the target CSTB (UniProt P04080), the NP40-soluble protein abundance by setting is: (concentration: 0.1mM) 0.939 ± 0.066; (concentration: 0.5mM) 0.916 ± 0.074.
The matching figures for FADS2 (UniProt O95864): 1.05 ± 0.092 and 1.05 ± 0.045.
The like results for IGLL1 (UniProt P15814) were, in that order, 0.969 ± 0.03 and 0.936 ± 0.047.
For FUCA1 (UniProt P04066), the NP40-soluble protein abundance stood at 0.973 ± 0.089 (concentration: 0.1mM) and 0.952 ± 0.068 (concentration: 0.5mM).
The matching figures for UniProt P09543-2: 1.09 ± 0.036 and 1.18 ± 0.055.
ACYP2 (UniProt P14621): the NP40-soluble protein abundance is 0.945 ± 0.05 (concentration: 0.1mM) and 0.933 ± 0.044 (concentration: 0.5mM).
With UniProt P06730 and related entries, the NP40-soluble protein abundance stood at 0.9997 ± 0.0059 (concentration: 0.1mM) and 1.05 ± 0.033 (concentration: 0.5mM).
With RAC2 (UniProt P15153), the NP40-soluble protein abundance (concentration: 0.1mM) is 1 ± 0.047 and the NP40-soluble protein abundance (concentration: 0.5mM) is 1.02 ± 0.073.
The matching figures for UniProt P00338-3|P00338-2: 1.06 ± 0.35 and 0.92 ± 0.17.
The like results for BAG3 (UniProt O95817) were, in that order, 1 ± 0.12 and 0.91 ± 0.25.
As for UniProt P11908 and related entries, the NP40-soluble protein abundance came out at 0.953 ± 0.047 (concentration: 0.1mM) and 0.956 ± 0.051 (concentration: 0.5mM).
The matching figures for GLA (UniProt P06280): 0.967 ± 0.028 and 0.997 ± 0.041.
The matching figures for ESD (UniProt P10768): 0.998 ± 0.091 and 1.02 ± 0.071.
The like results for RALA (UniProt P11233) were, in that order, 1.039 ± 0.0094 and 1.07 ± 0.087.
UniProt P16083 and related entries: the NP40-soluble protein abundance (concentration: 0.1mM) worked out at 1.04 ± 0.054 and the NP40-soluble protein abundance (concentration: 0.5mM) stood at 1.01 ± 0.03.
With MYL6B (UniProt P14649), the NP40-soluble protein abundance amounted to 0.853 ± 0.12 (concentration: 0.1mM) and 0.877 ± 0.14 (concentration: 0.5mM).
The like results for CTSB (UniProt P07858) were, in that order, 0.956 ± 0.052 and 0.962 ± 0.02.
Take UniProt O95822 and related entries: the NP40-soluble protein abundance runs as follows: (concentration: 0.1mM) 1.05 ± 0.084; (concentration: 0.5mM) 1.02 ± 0.024.
The like results for IGF2R (UniProt P11717) were, in that order, 0.971 ± 0.015 and 0.967 ± 0.059.
The matching figures for UniProt O96000 and related entries: 0.932 ± 0.14 and 0.936 ± 0.2.
For the target CAT (UniProt P04040), the NP40-soluble protein abundance was determined as 1.02 ± 0.046 (concentration: 0.1mM) and 1.02 ± 0.057 (concentration: 0.5mM).
For the target DBI (UniProt P07108), the NP40-soluble protein abundance (concentration: 0.1mM) is 0.916 ± 0.096 and the NP40-soluble protein abundance (concentration: 0.5mM) is 0.92 ± 0.074.
The like results for UniProt P08559 and related entries were, in that order, 1.03 ± 0.049 and 1.07 ± 0.051.
For the target UniProt P13051 and related entries, the NP40-soluble protein abundance stood at 1.04 ± 0.13 (concentration: 0.1mM) and 1.04 ± 0.093 (concentration: 0.5mM).
The matching figures for UniProt P06241 and related entries: 1.04 ± 0.013 and 1.14 ± 0.079.
As for GLUL (UniProt P15104), the NP40-soluble protein abundance reads like this: (concentration: 0.1mM) 1.02 ± 0.036; (concentration: 0.5mM) 1.01 ± 0.042.
Turning to UniProt P15170-2|P15170-3, the NP40-soluble protein abundance reads like this: (concentration: 0.1mM) 1.02 ± 0.043; (concentration: 0.5mM) 1.03 ± 0.048.
In the case of MIF (UniProt P14174), the NP40-soluble protein abundance reads like this: (concentration: 0.1mM) 0.991 ± 0.053; (concentration: 0.5mM) 0.918 ± 0.074.
The matching figures for POR (UniProt P16435): 1.07 ± 0.037 and 1.07 ± 0.064.
For CAPN1 (UniProt P07384), the NP40-soluble protein abundance was determined as 1.07 ± 0.11 (concentration: 0.1mM) and 1.05 ± 0.08 (concentration: 0.5mM).
On to ENO2 (UniProt P09104), for which the NP40-soluble protein abundance was 1.05 ± 0.074 (concentration: 0.1mM) and 1.04 ± 0.094 (concentration: 0.5mM).
Take ACYP1 (UniProt P07311): the NP40-soluble protein abundance runs as follows: (concentration: 0.1mM) 0.955 ± 0.029; (concentration: 0.5mM) 0.929 ± 0.053.
For RAF1 (UniProt P04049), the NP40-soluble protein abundance came out at 1.01 ± 0.07 (concentration: 0.1mM) and 1.29 ± 0.12 (concentration: 0.5mM).
Regarding CTSG (UniProt P08311), the NP40-soluble protein abundance by setting is: (concentration: 0.1mM) 0.929 ± 0.086; (concentration: 0.5mM) 0.924 ± 0.11.
For “UniProt P13473-2|P13473 and related entries”, the NP40-soluble protein abundance runs as follows: (concentration: 0.1mM) 0.909 ± 0.044; (concentration: 0.5mM) 0.856 ± 0.099.
As for UniProt P11498 and related entries, the NP40-soluble protein abundance was 1.07 ± 0.048 (concentration: 0.1mM) and 1.04 ± 0.031 (concentration: 0.5mM).
In the case of “UniProt P15923-2|X6REB3 and related entries”, the NP40-soluble protein abundance is, setting by setting: (concentration: 0.1mM) 0.955 ± 0.04; (concentration: 0.5mM) 0.931 ± 0.069.
Take PRKAR2A (UniProt P13861): the NP40-soluble protein abundance is, setting by setting: (concentration: 0.1mM) 1.02 ± 0.027; (concentration: 0.5mM) 1 ± 0.041.
The like results for UQCRB (UniProt P14927) were, in that order, 0.94 ± 0.058 and 0.93 ± 0.062.
The like results for NUDT14 (UniProt O95848) were, in that order, 1.15 ± 0.08 and 1 ± 0.13.
The matching figures for HARS (UniProt P12081): 1.01 ± 0.039 and 1.01 ± 0.054.
Turning to UniProt P04921 and related entries, the NP40-soluble protein abundance reads like this: (concentration: 0.1mM) 0.755 ± 0.026; (concentration: 0.5mM) 0.651 ± 0.13.
As for COX6C (UniProt P09669), the NP40-soluble protein abundance (concentration: 0.1mM) came to 0.835 ± 0.2 and the NP40-soluble protein abundance (concentration: 0.5mM) stood at 0.887 ± 0.34.
UniProt P09693: the NP40-soluble protein abundance worked out at 0.87 ± 0.044 (concentration: 0.1mM) and 0.9 ± 0.087 (concentration: 0.5mM).
The matching figures for CENPB (UniProt P07199): 0.998 ± 0.058 and 1.028 ± 0.0085.
As for UniProt P10619 and related entries, the NP40-soluble protein abundance by setting is: (concentration: 0.1mM) 0.914 ± 0.035; (concentration: 0.5mM) 0.905 ± 0.1.
The matching figures for XRCC6 (UniProt P12956): 0.892 ± 0.18 and 1.09 ± 0.22.
The matching figures for UniProt P14618 and related entries: 1.03 ± 0.061 and 1.02 ± 0.059.
The matching figures for UniProt P11413 and related entries: 1.04 ± 0.12 and 1.04 ± 0.07.
